# Measurements from paper PMC6392097.
# Protein sequences, listed by entry. Tags and fused reporters are not part of them.
# UniProt O77059: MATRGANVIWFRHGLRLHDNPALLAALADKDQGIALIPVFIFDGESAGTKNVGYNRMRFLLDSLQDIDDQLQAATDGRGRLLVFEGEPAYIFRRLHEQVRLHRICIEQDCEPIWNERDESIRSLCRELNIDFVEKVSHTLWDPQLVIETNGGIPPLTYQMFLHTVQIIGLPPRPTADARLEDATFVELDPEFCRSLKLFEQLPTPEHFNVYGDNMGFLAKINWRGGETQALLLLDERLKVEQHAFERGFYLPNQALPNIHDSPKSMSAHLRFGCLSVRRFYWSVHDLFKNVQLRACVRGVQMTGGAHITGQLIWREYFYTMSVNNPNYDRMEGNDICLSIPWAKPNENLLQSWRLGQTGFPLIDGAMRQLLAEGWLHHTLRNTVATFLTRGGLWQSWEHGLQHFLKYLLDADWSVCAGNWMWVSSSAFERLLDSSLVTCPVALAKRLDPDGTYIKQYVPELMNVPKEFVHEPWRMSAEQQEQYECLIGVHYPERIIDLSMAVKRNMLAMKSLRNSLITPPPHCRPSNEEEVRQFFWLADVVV
# UniProt Q9VHP0: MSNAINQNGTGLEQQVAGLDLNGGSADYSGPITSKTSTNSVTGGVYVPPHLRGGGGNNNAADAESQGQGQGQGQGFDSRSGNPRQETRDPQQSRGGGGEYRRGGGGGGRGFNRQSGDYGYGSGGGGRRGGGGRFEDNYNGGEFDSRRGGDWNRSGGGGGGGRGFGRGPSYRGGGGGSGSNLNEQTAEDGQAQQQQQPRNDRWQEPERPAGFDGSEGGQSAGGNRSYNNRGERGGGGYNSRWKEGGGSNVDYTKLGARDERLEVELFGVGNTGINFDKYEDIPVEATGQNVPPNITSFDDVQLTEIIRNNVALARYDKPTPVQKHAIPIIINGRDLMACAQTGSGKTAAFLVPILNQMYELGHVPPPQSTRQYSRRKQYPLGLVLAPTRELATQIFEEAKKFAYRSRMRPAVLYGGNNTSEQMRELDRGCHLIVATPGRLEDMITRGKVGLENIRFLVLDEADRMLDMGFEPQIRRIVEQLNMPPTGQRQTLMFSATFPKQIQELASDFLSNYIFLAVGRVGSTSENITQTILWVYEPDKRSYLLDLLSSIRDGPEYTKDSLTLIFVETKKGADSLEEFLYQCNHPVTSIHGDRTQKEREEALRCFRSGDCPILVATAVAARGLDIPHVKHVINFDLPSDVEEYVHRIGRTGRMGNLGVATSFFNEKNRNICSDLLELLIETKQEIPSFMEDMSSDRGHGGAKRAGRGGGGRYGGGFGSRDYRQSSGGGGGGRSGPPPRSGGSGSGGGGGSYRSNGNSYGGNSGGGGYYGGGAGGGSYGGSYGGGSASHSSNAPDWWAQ
# These are yes or no findings as the source states them, for the method shown. Binding seen in cells or lysates may run through a third protein. Some entries that bind do so weakly or less than the wild type.
# Molecular target: hemagglutinin (HA)-tagged form of dCRY (Drosophila melanogaster) (UniProt O77059)
# Assay: co-IP; head extracts of HACRY-overexpressing flies, anti-HA co-immunoprecipitation, Western blot with anti-BELLE and anti-HA; flies collected at ZT24 in the dark and after a 15-min light pulse; tim-GAL4 flies as control
substance,measurement,value
"BELLE, DEAD box RNA helicase (from UniProt Q9VHP0 1-798)",binding,binds
